Experimental data: PubChem BioAssay AID1259425 (University of Nebraska Medical Center, 2018)

Test: 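Seek colon cancer weak points whose silencing resembles KSR1 loss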 (primary screen)
Cell system: HCT116 human colon cancer cells
Reagents: siRNA pool against human genes, 50 nM siRNA
Measurement: 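mRNA of six signature genes measured together by branched-DNA assay after 50 nM siRNA pool, blank removed, divided by geometric mean of two housekeeping genes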
Scale: BNIP3L mRNA: higher = more BNIP3L transcript after knockdown; NDRG1 mRNA: higher = more NDRG1 transcript after knockdown; BNIP3 mRNA: higher = more BNIP3 transcript after knockdown
This is an unselected part of about 14,000 reagents. Not all columns of the deposit are shown. No sequences are given here. Not given: the time to read-out.

gene knocked down | BNIP3L mRNA, set 1 | NDRG1 mRNA, set 1 | BNIP3 mRNA, set 1
TAS2R42 (taste 2 receptor member 42) | 0.0992 | 0.121 | 0.356
FKBP3 (FKBP prolyl isomerase 3) | 0.0541 | 0.132 | 0.253
BTRC | 0.0738 | 0.0977 | 0.196
IRS4 (insulin receptor substrate 4) | 0.101 | 0.118 | 0.287
SFRP2 (secreted frizzled related protein 2) | 0.162 | 0.875 | 0.298
IFFO1 (intermediate filament family orphan 1) | 0.326 | 0.119 | 0.569
SNHG32 (small nucleolar RNA host gene 32) | 0.112 | 0.162 | 0.372
PNPLA6 (patatin like domain 6, lysophospholipase) | 0.0849 | 0.13 | 0.25

Continued, starting with the last 2 of the part before.
gene knocked down | BNIP3L mRNA, set 1 | NDRG1 mRNA, set 1 | BNIP3 mRNA, set 1
SNHG32 (small nucleolar RNA host gene 32) | 0.112 | 0.162 | 0.372
PNPLA6 (patatin like domain 6, lysophospholipase) | 0.0849 | 0.13 | 0.25
KIAA1217 | 0.101 | 0.134 | 0.341
FLVCR2 (FLVCR choline and putative heme transporter 2) | 0.17 | 1.45 | 0.345
PCDHA3 (protocadherin alpha 3) | 0.127 | 0.0313 | 0.267
BIN3 (bridging integrator 3) | 0.116 | 0.443 | 0.391
CCNL2 (cyclin L2) | 0.141 | 0.476 | 0.399
NANP (N-acetylneuraminic acid phosphatase) | 0.115 | 0.224 | 0.23
MTMR3 (myotubularin related protein 3) | 0.0888 | 0.154 | 0.314
PACSIN1 (protein kinase C and casein kinase substrate in neurons 1) | 0.132 | 0.185 | 0.546
NRBP1 (nuclear receptor binding protein 1) | 0.0976 | 0.0937 | 0.313
IKZF5 (IKAROS family zinc finger 5) | 0.084 | 0.573 | 0.24
AK7 (adenylate kinase 7) | 0.0774 | 0.268 | 0.171
SAV1 (salvador family WW domain containing protein 1) | 0.0592 | 0.154 | 0.372
